Experimental data published in patent US20260285809A1, “CRYSTAL OF N-(BENZOYL)-PHENYLALANINE COMPOUND, AND PHARMACEUTICAL COMPOSITION THEREOF, AND PREPARATION METHOD THEREFOR AND USE THEREOF” (Hangzhou Apeloa Medicine Research Institute Co., Ltd., priority 2022, published 2026).
The name of at least one read-out is uncertain.

Experiment: Solid-state stability under high temperature, high humidity, light exposure and acceleration conditions (HPLC purity, XRPD form)
Format: physicochemical
Details: 15d, 21600 min
Description: Sample on the 7th and 15th day to observe the color change of the samples. Analyze the sample purity and crystal form through HPLC and XPRD detection, respectively.
Sample on the 15th day to observe the color change of the sample. Analyze the sample purity and crystal form through HPLC and XPRD detection, respectively.

O=C(N[C@@H](Cc1ccc(N2C(=O)C3(CC3)c3ccc(F)c(F)c32)cc1)C(=O)O)c1c(F)cccc1Cl [Amorphous, (S)-2-(2-chloro-6-fluorobenzoyl amido)-3-(4-(6′,7′-difluoro-2′-oxospiro [cyclopropane-1,3′-indoline]-1′-yl)phenyl) propionic acid]
purity (Acceleration 40° C./75% RH): 89.70% | purity (High humidity 92.5% RH): 93.06% | purity (High temperature 60° C.): 91.89% | purity (Light exposure 4500 lux): 94.91%
